Assay results published in paper PMC11518377.
No constants are given. Whether binding was seen depends on the method and setting. A result given as binding can be weak or reduced; the word gives no strength.

Sequences of proteins named here, by UniProt entry; tags and fusion partners are left off. A change or cut given only in a name is not applied to a line headed by its entry.
UniProt P27637: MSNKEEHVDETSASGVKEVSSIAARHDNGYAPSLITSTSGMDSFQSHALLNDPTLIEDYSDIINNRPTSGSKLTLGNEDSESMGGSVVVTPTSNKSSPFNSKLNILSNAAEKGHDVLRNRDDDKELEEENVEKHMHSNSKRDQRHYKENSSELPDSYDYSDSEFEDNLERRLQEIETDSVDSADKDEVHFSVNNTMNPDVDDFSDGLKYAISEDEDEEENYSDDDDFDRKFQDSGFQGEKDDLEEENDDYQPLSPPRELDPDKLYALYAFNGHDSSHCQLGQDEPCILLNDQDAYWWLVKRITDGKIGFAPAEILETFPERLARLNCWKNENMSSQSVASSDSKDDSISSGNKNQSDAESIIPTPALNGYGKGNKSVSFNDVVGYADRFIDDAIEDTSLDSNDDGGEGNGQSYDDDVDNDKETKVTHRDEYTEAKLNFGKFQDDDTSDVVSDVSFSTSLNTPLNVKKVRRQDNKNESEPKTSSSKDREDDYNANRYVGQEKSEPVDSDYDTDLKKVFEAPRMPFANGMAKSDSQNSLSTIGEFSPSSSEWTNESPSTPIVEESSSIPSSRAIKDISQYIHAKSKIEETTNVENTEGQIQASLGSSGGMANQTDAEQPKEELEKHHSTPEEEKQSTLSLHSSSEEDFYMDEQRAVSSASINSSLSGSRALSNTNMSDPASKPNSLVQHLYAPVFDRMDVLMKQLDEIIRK

Biological target: Bud14-SH3Δ (S. cerevisiae (budding yeast)) (UniProt P27637)
Assay: two-hybrid; LexA DNA-binding domain (pMM5) and Gal4 activation domain (pMM6) fusions in strain SGY37-VIII,3 (lexA-op-LacZ); drops on agar plates overlaid with soft agar, blue colour read; also done in bfa1Δ and bud14Δ backgrounds

binding: binds
B1: Cdc14 (enzyme, UniProt Q00684 1-551)
chain: MRRSVYLDNTIEFLRGRVYLGAYDYTPEDTDELVFFTVEDAIFYNSFHLDFGPMNIGHLYRFAVIFHEILNDPENANKAVVFYSSASTRQRANAACMLCCYMILVQAWTPHQVLQPLAQVDPPFMPFRDAGYSNADFEITIQDVVYGVWRAKEKGLIDLHSFNLESYEKYEHVEFGDFNVLTPDFIAFASPQEDHPKGYLATKSSHLNQPFKSVLNFFANNNVQLVVRLNSHLYNKKHFEDIGIQHLDLIFEDGTCPDLSIVKNFVGAAETIIKRGGKIAVHCKAGLGRTGCLIGAHLIYTYGFTANECIGFLRFIRPGMVVGPQQHWLYLHQNDFREWKYTTRISLKPSEAIGGLYPLISLEEYRLQKKKLKDDKRVAQNNIEGELRDLTMTPPSNGHGALSARNSSQPSTANNGSNSFKSSAVPQTSPGQPRKGQNGSNTIEDINNNRNPTSHANRKVVIESNNSDDESMQDTNGTSNHYPKVSRKKNDISSASSSRMEDNEPSATNINNAADDTILRQLLPKNRRVTSGRRTTSAAGGIRKISGSIKK
